According to patent US9580426B2, “Compounds that expand hematopoietic stem cells” (Novartis AG, priority 2008, dated 2017):
Some entries share one result that the patent states for a list of compounds.

Test system: mPB CD34+ HSCs
Assay: Culture of mPB CD34+ HSCs, number of CD34+CD45RA- cells
Format: cell-based, human
Details: 1 micromolar; derived from 1000 mPB CD34+ HSCs after 21 days

SMILES	increase in the number of CD34+CD45RA- cells compared to vehicle
CCC(C)n1cnc2c(NCCc3ccc(O)cc3)nc(-c3csc4ccccc34)nc21 (stereo not drawn) [Example 2, 4-(2-(2-(benzo[b]thiophen-3-yl)-9-sec-butyl-9H-purin-6-ylamino)ethyl)phenol]	greater than 10 fold
CC(C)n1cnc2c(NCCc3c[nH]c4ccccc34)nc(-c3csc4ccccc34)nc21 [Example 9, N-(2-(1H-indol-3-yl)ethyl)-2-(benzo[b]thiophen-3-yl)-9-isopropyl-9H-purin-6-amine]	greater than 10 fold
CC(C)n1cnc2c(NCCc3ccc(O)cc3)nc(-c3csc4ccccc34)nc21 [Example 1, 4-(2-(2-(benzo[b]thiophen-3-yl)-9-isopropyl-9H-purin-6-ylamino)ethyl)phenol]	greater than 10 fold
